From patent US10577317B2, “Crystal forms and production methods thereof” (Sunovion Pharmaceuticals Inc., priority 2017, dated 2020)
The source gives many values for each of these; only a part stands here.

Assay: DVS water sorption isotherm, 25° C. scanned over 0 to 95% relative humidity (hygroscopicity)
Type: physicochemical
Conditions: FIG. 3F
Excerpt: In various embodiments, the hygroscopicity of crystal forms of racemic amisulpride, enantiomeric amisulpride, and enantiomeric amisulpride solvates are characterized by dynamic vapor sorption (DVS). DVS is a gravimetric technique that measures how much of a solvent is absorbed by a sample by varying the vapor concentration surrounding the sample (e.g., relative humidity) and measuring the change in mass. In the present application, DVS is used to generate water sorption isotherms, which represent the equilibrium amount of vapor sorbed as a function of steady state relative vapor pressure at a constant temperature.

Change Mass (RH 1.31 %, elapse time 104.3 min): 0.000 wt % | Change Mass (RH 5.02 %, elapse time 292.6 min): 0.018 wt % | Change Mass (RH 5.07 %, elapse time 625.8 min): 0.028 wt % | Change Mass (RH 5.10 %, elapse time 966.5 min): 0.022 wt % | Change Mass (RH 9.91 %, elapse time 633.8 min): 0.031 wt % | Change Mass (RH 10.09 %, elapse time 617.8 min): 0.034 wt % | Change Mass (RH 10.14 %, elapse time 301.1 min): 0.023 wt % | Change Mass (RH 10.15 %, elapse time 958.5 min): 0.026 wt % | Change Mass (RH 14.86 %, elapse time 641.9 min): 0.036 wt % | Change Mass (RH 15.11 %, elapse time 950.5 min): 0.029 wt % | Change Mass (RH 15.12 %, elapse time 609.8 min): 0.040 wt % | Change Mass (RH 15.17 %, elapse time 309.1 min): 0.029 wt % | Change Mass (RH 19.87 %, elapse time 649.9 min): 0.041 wt % | Change Mass (RH 20.09 %, elapse time 942.5 min): 0.035 wt % | Change Mass (RH 20.12 %, elapse time 601.8 min): 0.046 wt % | Change Mass (RH 24.86 %, elapse time 658.9 min): 0.047 wt % | Change Mass (RH 24.90 %, elapse time 593.8 min): 0.053 wt % | Change Mass (RH 24.92 %, elapse time 934.5 min): 0.042 wt % | Change Mass (RH 29.81 %, elapse time 335.2 min): 0.049 wt % | Change Mass (RH 29.83 %, elapse time 667.9 min): 0.053 wt % | Change Mass (RH 30.11 %, elapse time 586.3 min): 0.060 wt % | Change Mass (RH 30.15 %, elapse time 927.0 min): 0.047 wt % | Change Mass (RH 34.85 %, elapse time 676.9 min): 0.059 wt % | Change Mass (RH 34.89 %, elapse time 577.8 min): 0.066 wt % | Change Mass (RH 34.95 %, elapse time 344.2 min): 0.055 wt % | Change Mass (RH 34.97 %, elapse time 918.5 min): 0.052 wt % | Change Mass (RH 39.80 %, elapse time 685.9 min): 0.065 wt % | Change Mass (RH 39.84 %, elapse time 567.8 min): 0.073 wt % | Change Mass (RH 39.84 %, elapse time 908.5 min): 0.059 wt % | Change Mass (RH 40.00 %, elapse time 353.2 min): 0.061 wt % | Change Mass (RH 44.81 %, elapse time 362.2 min): 0.068 wt % | Change Mass (RH 45.01 %, elapse time 558.3 min): 0.080 wt % | Change Mass (RH 45.01 %, elapse time 696.9 min): 0.071 wt % | Change Mass (RH 45.07 %, elapse time 899.0 min): 0.065 wt % | Change Mass (RH 49.95 %, elapse time 373.2 min): 0.074 wt % | Change Mass (RH 49.96 %, elapse time 707.9 min): 0.078 wt % | Change Mass (RH 50.08 %, elapse time 888.0 min): 0.072 wt % | Change Mass (RH 50.14 %, elapse time 547.3 min): 0.087 wt % | Change Mass (RH 54.92 %, elapse time 718.9 min): 0.084 wt % | Change Mass (RH 54.94 %, elapse time 382.2 min): 0.081 wt % | Change Mass (RH 55.07 %, elapse time 538.3 min): 0.094 wt % | Change Mass (RH 55.07 %, elapse time 877.0 min): 0.078 wt % | Change Mass (RH 59.85 %, elapse time 729.9 min): 0.091 wt % | Change Mass (RH 59.92 %, elapse time 393.2 min): 0.089 wt % | Change Mass (RH 60.09 %, elapse time 527.3 min): 0.101 wt % | Change Mass (RH 60.09 %, elapse time 866.0 min): 0.085 wt % | Change Mass (RH 64.90 %, elapse time 740.9 min): 0.098 wt % | Change Mass (RH 64.98 %, elapse time 404.2 min): 0.097 wt % | Change Mass (RH 65.10 %, elapse time 516.3 min): 0.108 wt % | Change Mass (RH 65.18 %, elapse time 855.0 min): 0.093 wt % | Change Mass (RH 69.85 %, elapse time 751.9 min): 0.105 wt % | Change Mass (RH 69.97 %, elapse time 413.2 min): 0.105 wt % | Change Mass (RH 70.13 %, elapse time 505.3 min): 0.115 wt % | Change Mass (RH 70.15 %, elapse time 844.0 min): 0.101 wt % | Change Mass (RH 74.64 %, elapse time 760.9 min): 0.111 wt % | Change Mass (RH 74.69 %, elapse time 422.2 min): 0.114 wt % | Change Mass (RH 75.16 %, elapse time 833.0 min): 0.109 wt % | Change Mass (RH 75.42 %, elapse time 494.3 min): 0.123 wt % | Change Mass (RH 79.56 %, elapse time 769.9 min): 0.119 wt % | Change Mass (RH 79.58 %, elapse time 431.2 min): 0.124 wt % | Change Mass (RH 80.40 %, elapse time 485.3 min): 0.134 wt % | Change Mass (RH 80.44 %, elapse time 824.0 min): 0.121 wt % | Change Mass (RH 84.53 %, elapse time 440.2 min): 0.137 wt % | Change Mass (RH 84.91 %, elapse time 778.9 min): 0.131 wt % | Change Mass (RH 85.35 %, elapse time 476.3 min): 0.151 wt % | Change Mass (RH 85.40 %, elapse time 815.0 min): 0.139 wt % | Change Mass (RH 89.53 %, elapse time 787.9 min): 0.143 wt % | Change Mass (RH 89.83 %, elapse time 449.2 min): 0.151 wt % | Change Mass (RH 90.05 %, elapse time 467.3 min): 0.160 wt % | Change Mass (RH 90.15 %, elapse time 806.0 min): 0.149 wt % | Change Mass (RH 94.52 %, elapse time 458.3 min): 0.170 wt % | Change Mass (RH 94.71 %, elapse time 797.0 min): 0.159 wt %
SMILES: CCN1CCC[C@H]1CNC(=O)c1cc(S(=O)(=O)CC)c(N)cc1OC [(S)-amisulpride Form A′, S-4-Amino-N-[(1-ethyl-2-pyrrolidinyl)methyl]-5-(ethylsulfonyl)-2-methoxybenzamide]
